These are yes or no findings as the source states them, for the method shown. Binding seen in cells or lysates may run through a third protein. These calls come from enrichment with a bait or labelling near it, and not all partners need be listed.

Protein sequences, listed by entry. Tags and fused reporters are not part of them. Residues count along the entry.
UniProt P35441, residues 19-1170: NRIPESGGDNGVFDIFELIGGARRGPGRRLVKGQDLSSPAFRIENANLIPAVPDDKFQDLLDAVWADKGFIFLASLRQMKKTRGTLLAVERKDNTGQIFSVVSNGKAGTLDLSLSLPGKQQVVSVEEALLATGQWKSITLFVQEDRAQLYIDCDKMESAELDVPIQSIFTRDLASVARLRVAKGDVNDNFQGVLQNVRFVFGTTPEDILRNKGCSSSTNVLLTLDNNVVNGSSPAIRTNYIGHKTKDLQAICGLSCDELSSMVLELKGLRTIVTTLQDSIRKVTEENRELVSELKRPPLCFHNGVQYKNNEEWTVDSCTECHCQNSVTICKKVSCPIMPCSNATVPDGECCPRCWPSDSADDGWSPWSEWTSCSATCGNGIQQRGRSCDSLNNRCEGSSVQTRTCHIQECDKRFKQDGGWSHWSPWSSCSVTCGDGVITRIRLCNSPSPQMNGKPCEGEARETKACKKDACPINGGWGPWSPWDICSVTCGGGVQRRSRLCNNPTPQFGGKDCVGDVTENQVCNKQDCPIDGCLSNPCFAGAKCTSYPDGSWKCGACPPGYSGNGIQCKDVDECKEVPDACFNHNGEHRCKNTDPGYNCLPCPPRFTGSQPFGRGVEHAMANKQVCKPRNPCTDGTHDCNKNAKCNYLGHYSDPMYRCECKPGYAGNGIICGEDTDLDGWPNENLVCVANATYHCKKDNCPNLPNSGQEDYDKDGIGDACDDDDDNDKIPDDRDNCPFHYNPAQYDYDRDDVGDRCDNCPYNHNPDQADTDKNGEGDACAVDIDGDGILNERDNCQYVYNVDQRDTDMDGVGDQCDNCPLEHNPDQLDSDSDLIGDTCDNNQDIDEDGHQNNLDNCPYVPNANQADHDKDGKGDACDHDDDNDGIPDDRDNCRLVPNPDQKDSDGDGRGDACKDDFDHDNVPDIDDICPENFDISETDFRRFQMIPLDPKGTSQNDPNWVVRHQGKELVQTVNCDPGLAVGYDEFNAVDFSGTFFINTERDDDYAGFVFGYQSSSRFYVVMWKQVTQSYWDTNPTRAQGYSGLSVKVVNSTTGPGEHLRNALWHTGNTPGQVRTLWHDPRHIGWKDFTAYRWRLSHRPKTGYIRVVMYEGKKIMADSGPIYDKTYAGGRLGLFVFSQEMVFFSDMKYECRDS

In this test the target is T1, recombinant extracellular domain of mouse DCIR1 (mDCIR1-ECD), chemically biotinylated (mouse) (UniProt Q923C7).
T1 sequence (chain, biotin (chemical, EZ-Link Sulfo-NHS-LC-Biotin)): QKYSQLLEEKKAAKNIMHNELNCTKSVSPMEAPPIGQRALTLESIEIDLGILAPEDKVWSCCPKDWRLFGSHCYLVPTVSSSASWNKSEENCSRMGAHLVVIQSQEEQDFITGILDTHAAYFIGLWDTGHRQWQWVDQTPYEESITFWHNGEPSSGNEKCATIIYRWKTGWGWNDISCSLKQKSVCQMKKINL
The test can be described thus: affinity purification with mass spectrometry.

As to “Thrombospondin 1 (THBS1) (from UniProt P35441 19-1170)”, the binding result was “binds”.

Values taken from article doi:10.1101/2024.05.20.594848.
